# This is one part of the list. Most entries show no effect beyond the scatter of the controls.
# By UniProt entry, the sequences of proteins in these tests, tags left out. Where a name states a change or a piece, a line headed by the entry shows the natural chain unless it says otherwise.
# UniProt Q99996, whole entry: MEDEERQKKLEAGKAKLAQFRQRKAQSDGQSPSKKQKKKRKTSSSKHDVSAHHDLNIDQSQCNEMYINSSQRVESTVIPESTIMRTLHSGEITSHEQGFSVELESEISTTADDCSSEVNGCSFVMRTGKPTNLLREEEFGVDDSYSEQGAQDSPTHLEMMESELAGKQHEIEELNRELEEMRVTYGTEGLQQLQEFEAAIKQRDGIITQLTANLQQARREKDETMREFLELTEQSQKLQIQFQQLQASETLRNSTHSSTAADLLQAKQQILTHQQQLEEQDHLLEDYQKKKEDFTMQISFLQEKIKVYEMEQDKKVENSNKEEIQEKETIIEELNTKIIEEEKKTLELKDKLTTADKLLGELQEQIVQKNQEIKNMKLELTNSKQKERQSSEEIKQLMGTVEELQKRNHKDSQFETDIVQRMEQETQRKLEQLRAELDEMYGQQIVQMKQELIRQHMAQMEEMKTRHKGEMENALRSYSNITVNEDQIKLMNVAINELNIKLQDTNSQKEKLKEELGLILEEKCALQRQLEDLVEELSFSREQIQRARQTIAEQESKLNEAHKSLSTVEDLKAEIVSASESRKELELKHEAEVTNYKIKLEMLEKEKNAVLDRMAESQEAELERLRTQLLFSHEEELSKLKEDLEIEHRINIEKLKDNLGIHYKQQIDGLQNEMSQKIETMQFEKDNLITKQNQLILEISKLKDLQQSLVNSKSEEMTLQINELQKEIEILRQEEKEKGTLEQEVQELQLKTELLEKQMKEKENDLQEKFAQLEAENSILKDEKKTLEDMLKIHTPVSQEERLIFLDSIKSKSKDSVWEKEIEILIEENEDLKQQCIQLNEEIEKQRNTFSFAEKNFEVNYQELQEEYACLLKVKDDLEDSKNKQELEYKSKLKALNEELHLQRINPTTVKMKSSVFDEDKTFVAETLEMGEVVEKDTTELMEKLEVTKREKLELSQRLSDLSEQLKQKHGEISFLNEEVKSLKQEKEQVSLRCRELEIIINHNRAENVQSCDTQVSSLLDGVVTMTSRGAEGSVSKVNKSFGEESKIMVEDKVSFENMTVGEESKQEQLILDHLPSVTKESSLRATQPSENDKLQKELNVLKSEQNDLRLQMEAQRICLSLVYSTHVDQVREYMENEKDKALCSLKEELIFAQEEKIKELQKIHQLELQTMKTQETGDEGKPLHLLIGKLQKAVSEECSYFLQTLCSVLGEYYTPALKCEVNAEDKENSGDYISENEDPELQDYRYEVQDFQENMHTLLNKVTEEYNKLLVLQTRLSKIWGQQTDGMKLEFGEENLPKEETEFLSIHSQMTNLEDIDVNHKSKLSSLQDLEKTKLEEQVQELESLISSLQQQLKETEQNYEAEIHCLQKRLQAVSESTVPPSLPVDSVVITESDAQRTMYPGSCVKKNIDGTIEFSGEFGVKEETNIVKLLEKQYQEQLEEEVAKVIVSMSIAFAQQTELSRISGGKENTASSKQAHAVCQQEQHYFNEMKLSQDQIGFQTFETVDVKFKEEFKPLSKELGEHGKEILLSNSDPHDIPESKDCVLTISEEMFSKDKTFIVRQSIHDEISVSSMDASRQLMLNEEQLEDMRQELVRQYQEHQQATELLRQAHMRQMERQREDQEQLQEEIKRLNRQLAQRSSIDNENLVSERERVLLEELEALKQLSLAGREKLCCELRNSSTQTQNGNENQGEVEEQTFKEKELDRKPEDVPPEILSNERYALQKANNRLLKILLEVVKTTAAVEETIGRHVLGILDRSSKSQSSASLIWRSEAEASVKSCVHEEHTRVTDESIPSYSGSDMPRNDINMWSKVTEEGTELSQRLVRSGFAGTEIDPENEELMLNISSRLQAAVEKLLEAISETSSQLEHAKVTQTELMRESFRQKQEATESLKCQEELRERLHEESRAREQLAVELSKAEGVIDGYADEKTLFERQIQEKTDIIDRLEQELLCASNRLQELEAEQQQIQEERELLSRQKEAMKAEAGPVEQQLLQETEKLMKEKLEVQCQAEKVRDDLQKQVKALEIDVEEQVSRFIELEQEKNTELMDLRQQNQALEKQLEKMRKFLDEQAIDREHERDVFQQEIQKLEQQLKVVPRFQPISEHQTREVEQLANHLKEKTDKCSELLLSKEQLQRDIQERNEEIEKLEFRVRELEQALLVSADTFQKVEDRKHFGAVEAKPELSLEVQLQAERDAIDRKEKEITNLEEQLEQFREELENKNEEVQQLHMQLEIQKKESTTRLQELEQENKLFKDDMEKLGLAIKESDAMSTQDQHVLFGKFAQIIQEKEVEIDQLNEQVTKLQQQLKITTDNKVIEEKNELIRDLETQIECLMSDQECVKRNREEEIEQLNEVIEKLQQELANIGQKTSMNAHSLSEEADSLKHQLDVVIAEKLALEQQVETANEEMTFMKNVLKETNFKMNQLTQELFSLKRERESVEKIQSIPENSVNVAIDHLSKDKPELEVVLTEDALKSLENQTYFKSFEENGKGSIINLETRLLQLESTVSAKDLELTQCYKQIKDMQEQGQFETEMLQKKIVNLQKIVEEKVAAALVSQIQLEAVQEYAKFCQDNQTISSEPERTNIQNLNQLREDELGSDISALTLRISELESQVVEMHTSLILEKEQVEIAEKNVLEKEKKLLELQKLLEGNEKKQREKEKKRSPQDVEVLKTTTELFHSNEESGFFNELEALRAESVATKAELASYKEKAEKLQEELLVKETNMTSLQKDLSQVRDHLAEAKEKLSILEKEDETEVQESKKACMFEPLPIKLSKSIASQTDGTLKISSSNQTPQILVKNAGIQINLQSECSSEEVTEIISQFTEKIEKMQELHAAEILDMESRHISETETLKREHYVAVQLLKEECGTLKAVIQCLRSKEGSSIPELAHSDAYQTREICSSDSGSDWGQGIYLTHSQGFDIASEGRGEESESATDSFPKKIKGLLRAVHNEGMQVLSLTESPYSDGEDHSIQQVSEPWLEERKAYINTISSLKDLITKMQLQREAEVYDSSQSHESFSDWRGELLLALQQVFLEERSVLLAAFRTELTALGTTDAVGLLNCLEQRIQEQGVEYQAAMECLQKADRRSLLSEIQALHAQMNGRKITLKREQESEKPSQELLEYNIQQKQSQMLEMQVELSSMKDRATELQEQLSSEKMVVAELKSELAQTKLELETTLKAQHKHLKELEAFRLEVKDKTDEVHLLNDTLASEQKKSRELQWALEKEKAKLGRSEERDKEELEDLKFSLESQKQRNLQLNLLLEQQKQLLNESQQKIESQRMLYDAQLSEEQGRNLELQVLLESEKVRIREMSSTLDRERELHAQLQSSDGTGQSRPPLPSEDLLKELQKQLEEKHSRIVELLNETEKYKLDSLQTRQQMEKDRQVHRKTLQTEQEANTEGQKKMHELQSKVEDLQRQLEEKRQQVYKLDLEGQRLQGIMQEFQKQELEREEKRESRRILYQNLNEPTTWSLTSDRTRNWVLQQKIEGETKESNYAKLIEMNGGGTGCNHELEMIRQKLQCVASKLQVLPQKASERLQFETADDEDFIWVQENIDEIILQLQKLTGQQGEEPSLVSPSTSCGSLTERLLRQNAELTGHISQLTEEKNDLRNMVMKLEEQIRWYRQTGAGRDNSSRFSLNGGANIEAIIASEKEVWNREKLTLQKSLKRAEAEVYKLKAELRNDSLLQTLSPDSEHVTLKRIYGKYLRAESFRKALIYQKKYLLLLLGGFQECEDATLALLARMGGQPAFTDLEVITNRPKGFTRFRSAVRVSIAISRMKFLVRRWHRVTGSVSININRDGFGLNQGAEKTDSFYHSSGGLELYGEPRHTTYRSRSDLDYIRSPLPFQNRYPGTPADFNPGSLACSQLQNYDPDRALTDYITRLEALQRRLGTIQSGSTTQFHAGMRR
# UniProt Q9BT30: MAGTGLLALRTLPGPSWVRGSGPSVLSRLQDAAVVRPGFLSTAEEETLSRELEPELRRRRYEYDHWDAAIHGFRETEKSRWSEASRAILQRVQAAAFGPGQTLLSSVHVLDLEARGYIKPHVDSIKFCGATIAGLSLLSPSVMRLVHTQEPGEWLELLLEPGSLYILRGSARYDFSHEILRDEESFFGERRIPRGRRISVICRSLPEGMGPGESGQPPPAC
# UniProt Q9BT17: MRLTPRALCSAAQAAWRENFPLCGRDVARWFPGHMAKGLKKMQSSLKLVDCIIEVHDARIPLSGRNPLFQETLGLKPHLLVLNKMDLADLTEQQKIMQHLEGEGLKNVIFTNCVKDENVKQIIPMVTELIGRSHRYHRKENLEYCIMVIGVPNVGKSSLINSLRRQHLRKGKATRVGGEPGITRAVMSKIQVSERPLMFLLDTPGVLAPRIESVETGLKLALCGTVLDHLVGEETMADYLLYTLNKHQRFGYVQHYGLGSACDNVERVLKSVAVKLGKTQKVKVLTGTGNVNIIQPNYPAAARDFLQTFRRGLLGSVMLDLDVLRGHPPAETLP
# UniProt Q9BTE0: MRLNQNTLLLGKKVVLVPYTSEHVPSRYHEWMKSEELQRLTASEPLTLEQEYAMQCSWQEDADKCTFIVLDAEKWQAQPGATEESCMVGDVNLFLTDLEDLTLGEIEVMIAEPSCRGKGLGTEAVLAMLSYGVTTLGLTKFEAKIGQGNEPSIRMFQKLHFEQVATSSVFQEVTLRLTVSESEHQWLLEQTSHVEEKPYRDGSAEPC
# UniProt Q9BRD0: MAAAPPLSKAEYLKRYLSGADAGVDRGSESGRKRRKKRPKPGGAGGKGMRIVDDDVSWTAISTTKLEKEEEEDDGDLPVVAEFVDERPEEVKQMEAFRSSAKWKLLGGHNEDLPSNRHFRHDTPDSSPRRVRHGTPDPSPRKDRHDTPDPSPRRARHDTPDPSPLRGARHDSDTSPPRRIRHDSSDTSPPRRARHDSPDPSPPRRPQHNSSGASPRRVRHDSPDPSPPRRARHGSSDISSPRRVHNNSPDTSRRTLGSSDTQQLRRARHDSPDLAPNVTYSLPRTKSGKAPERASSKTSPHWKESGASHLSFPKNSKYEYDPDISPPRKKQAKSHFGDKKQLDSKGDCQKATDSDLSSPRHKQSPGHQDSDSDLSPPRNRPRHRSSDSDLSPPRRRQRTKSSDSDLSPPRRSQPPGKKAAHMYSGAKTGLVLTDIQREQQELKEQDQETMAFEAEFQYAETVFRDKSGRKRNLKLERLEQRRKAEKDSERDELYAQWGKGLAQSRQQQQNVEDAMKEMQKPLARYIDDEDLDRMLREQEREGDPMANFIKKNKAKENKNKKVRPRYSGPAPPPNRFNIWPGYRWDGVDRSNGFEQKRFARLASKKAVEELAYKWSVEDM
# UniProt Q99766: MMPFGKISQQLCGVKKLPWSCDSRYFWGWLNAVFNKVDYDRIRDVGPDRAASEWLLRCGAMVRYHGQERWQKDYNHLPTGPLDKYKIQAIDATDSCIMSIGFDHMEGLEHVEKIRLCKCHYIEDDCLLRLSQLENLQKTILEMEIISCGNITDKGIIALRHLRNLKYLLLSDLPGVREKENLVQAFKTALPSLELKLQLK
# UniProt Q9BUN5: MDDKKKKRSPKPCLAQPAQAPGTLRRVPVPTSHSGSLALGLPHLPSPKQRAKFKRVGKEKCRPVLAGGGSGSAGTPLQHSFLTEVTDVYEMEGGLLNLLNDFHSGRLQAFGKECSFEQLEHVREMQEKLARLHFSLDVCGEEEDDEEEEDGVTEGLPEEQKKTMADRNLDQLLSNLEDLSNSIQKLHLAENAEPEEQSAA
# UniProt Q99442: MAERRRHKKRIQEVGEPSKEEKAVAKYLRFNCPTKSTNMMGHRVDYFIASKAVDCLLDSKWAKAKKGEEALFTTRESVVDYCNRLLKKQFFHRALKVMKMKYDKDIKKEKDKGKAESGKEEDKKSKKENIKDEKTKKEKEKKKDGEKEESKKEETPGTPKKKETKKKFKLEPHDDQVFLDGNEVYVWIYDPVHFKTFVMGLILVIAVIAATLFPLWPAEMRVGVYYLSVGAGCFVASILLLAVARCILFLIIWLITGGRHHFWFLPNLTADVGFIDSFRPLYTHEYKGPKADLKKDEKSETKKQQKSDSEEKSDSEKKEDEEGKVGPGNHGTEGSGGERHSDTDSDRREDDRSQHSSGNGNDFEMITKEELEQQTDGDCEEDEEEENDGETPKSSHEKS
# UniProt Q99615: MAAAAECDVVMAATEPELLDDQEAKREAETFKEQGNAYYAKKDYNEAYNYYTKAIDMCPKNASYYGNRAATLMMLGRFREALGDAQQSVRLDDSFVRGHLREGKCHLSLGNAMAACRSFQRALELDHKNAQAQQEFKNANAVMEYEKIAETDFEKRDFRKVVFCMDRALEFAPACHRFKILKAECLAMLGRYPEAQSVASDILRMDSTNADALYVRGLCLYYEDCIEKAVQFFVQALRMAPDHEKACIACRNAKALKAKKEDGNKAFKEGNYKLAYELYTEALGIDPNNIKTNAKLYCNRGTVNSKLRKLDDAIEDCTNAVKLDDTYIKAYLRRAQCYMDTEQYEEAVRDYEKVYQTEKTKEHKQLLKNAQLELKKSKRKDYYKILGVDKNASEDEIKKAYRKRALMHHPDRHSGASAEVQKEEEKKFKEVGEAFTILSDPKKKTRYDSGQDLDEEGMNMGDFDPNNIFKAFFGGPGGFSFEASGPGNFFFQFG
# Compound: Cc1nc(Nc2ncc(C(=O)Nc3c(C)cccc3Cl)s2)cc(N2CCN(CCO)CC2)n1 [dasatinib]
# Assay: log2 fold change of tryptic peptide abundance, ligand vs vehicle (limited proteolysis) (log2 ratio); higher = more trypsin-susceptible (destabilized)
# Details: ligand concentration: 5 uM; sample: K562 cleared lysate
row,Target,log2 fold change
1,"AKAP9 (peptide sequence: QREDQEQLQEEIKR, peptide start residue: 1619) (UniProt Q99996)",-0.212
2,"ALKBH7 (peptide sequence: TLPGPSWVR, peptide start residue: 11) (UniProt Q9BT30)",-0.53
3,"TSEN34 (peptide sequence: HHSLALTSFKR, peptide start residue: 78) (UniProt Q9BSV6)",-0.349
4,"MTG1 (peptide sequence: MDLADLTEQQK, peptide start residue: 85) (UniProt Q9BT17)",0.511
5,"UniProt Q9BTE0 (peptide sequence: LNQNTLLLGK, peptide start residue: 3)",-0.0404
6,"BUD13 (peptide sequence: YLSGADAGVDRGSESGR, peptide start residue: 16) (UniProt Q9BRD0)",-0.187
7,"UniProt Q99766 (peptide sequence: AASEWLLR, peptide start residue: 65)",-0.0275
8,"CCDC28B (peptide sequence: LQAFGKECSFEQLEHVR, peptide start residue: 107) (UniProt Q9BUN5)",0.784
9,"SEC62 (peptide sequence: KENIKDEK, peptide start residue: 127) (UniProt Q99442)",0.566
10,"DNAJC7 (peptide sequence: FREALGDAQQSVR, peptide start residue: 78) (UniProt Q99615)",-0.21

# From the supplement of paper PMC12819154, “High-throughput peptide-centric local stability assay extends protein–ligand identification to membrane proteins, tissues and bacteria” (Nature Structural & Molecular Biology, 2025)
